Taken from: PubChem BioAssay AID1259425 (University of Nebraska Medical Center, 2018)
This is an unselected part of about 14,000 reagents. Further read-outs or replicates are left out here. Not stated in the record: the time to read-out.

Purpose: 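Find knockdowns that reproduce the gene expression pattern seen when KSR1 is lost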 (primary screen)
Cell system: HCT116 human colon cancer cells
Knock-down reagent: siRNA pool against human genes, 50 nM siRNA
Detection: 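After 50 nM siRNA pool, branched-DNA assay measures six marker transcripts per well, minus blank, normalised to the geometric mean of two housekeeping transcripts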
Scale: BNIP3L mRNA: higher = more BNIP3L transcript after knockdown; NDRG1 mRNA: higher = more NDRG1 transcript after knockdown; BNIP3 mRNA: higher = more BNIP3 transcript after knockdown

target gene	PubChem SID	BNIP3L mRNA, set 1	NDRG1 mRNA, set 1	BNIP3 mRNA, set 1
HSD3B7	SID364003301	0.29	0.571	0.53
KREMEN1	SID364003764	0.118	0.247	0.287
IL36A	SID363998855	0.0531	0.0478	0.236
PGAM2	SID363991622	0.0838	0.191	0.284
DNAJC3	SID363997083	0.118	0.113	0.333
TOMM7	SID364001366	1.79	3.38	3.83
SENP2	SID364002151	0.16	0.131	0.322
TAF9	SID363994323	0.106	0.187	0.457
PRADC1	SID364003905	0.134	0.19	0.26
NET1	SID363996737	0.137	0.118	0.329
MKRN1	SID363998523	0.166	0.459	0.367
BRINP2	SID364002056	0.0737	0.113	0.317
DCLK1	SID363995693	0.146	0.144	0.376
HSPE1	SID363993361	0.151	0.159	0.374
METTL16	SID364002738	0.0801	0.175	0.216
KDM4A	SID363999017	0.131	0.58	0.218
LIPF	SID363995194	0.0699	0.0774	0.202
ENTPD5	SID363992534	0.112	0.248	0.298
CD59	SID363991929	0.106	0.0923	0.236
DNMT3A	SID364002484	0.188	0.92	0.4
ZBTB22	SID363996359	0.157	0.0732	0.206
ISOC2	SID364002995	0.173	0.162	0.422
ZNF184	SID363997853	0.0643	0.123	0.325
GKAP1	SID364003316	0.0498	0.0629	0.211
ANKRD7	SID364001445	0.0636	0.0888	0.103
CFHR2	SID363996557	0.0869	0.205	0.288
PLEKHJ1	SID364000737	0.11	0.152	0.281
TRMT1L	SID364003508	0.136	0.447	0.42
CARTPT	SID363995285	0.135	0.281	0.544
FIS1	SID363999841	0.0501	0.0871	0.266
MTFR1L	SID364001420	0.188	0.313	0.514
BTBD8	SID364005075	0.0979	0.114	0.274
NCF1C	SID363991598	0.126	0.356	0.362
KCNA7	SID364003674	0.0784	0.129	0.291
GIN1	SID364000439	0.879	3.01	2.45
SNURF	SID363996568	0.0891	0.309	0.363
BBOF1	SID364003225	0.0958	0.62	0.339
IL5	SID363992166	0.0833	0.125	0.243
ELF4	SID363992685	0.133	0.121	0.367
SUPT4H1	SID363994305	0.17	0.16	0.549
H2BC17	SID363994611	0.0925	0.433	0.277
DKK1	SID363998166	0.18	0.414	0.308
KNDC1	SID364004373	0.083	0.188	0.243
ATOSB	SID364003295	0.106	0.343	0.289
LATS2	SID363998944	0.0659	0.0765	0.223
TEX2	SID364001097	0.0367	0.149	0.33
KLF6	SID363992584	0.0906	0.11	0.317
GLE1	SID363992757	0.0534	0.21	0.296
DHRS3	SID363995711	0.104	0.106	0.252
BMPR1B	SID363992491	0.133	0.301	0.298

Part of the list above, set out differently:
{"target gene":"ZBTB22","PubChem SID":"SID363996359","BNIP3L mRNA, set 1":0.157,"NDRG1 mRNA, set 1":0.0732,"BNIP3 mRNA, set 1":0.206}
{"target gene":"ISOC2","PubChem SID":"SID364002995","BNIP3L mRNA, set 1":0.173,"NDRG1 mRNA, set 1":0.162,"BNIP3 mRNA, set 1":0.422}
{"target gene":"ZNF184","PubChem SID":"SID363997853","BNIP3L mRNA, set 1":0.0643,"NDRG1 mRNA, set 1":0.123,"BNIP3 mRNA, set 1":0.325}
{"target gene":"GKAP1","PubChem SID":"SID364003316","BNIP3L mRNA, set 1":0.0498,"NDRG1 mRNA, set 1":0.0629,"BNIP3 mRNA, set 1":0.211}
{"target gene":"ANKRD7","PubChem SID":"SID364001445","BNIP3L mRNA, set 1":0.0636,"NDRG1 mRNA, set 1":0.0888,"BNIP3 mRNA, set 1":0.103}
{"target gene":"CFHR2","PubChem SID":"SID363996557","BNIP3L mRNA, set 1":0.0869,"NDRG1 mRNA, set 1":0.205,"BNIP3 mRNA, set 1":0.288}
{"target gene":"PLEKHJ1","PubChem SID":"SID364000737","BNIP3L mRNA, set 1":0.11,"NDRG1 mRNA, set 1":0.152,"BNIP3 mRNA, set 1":0.281}
{"target gene":"TRMT1L","PubChem SID":"SID364003508","BNIP3L mRNA, set 1":0.136,"NDRG1 mRNA, set 1":0.447,"BNIP3 mRNA, set 1":0.42}
